According to US5460797A, “Method for fixing tissues and cells for analysis using oxazolidine compounds” (Streck Laboratories, Inc., priority 1994, dated 1995):
At least one compound was matched to its structure with a doubt left.

Key:
[1] = Formaldehyde content or release; format: physicochemical
RBC's = assay: Relative RBC fixation detected by adding RBC lysing agent; format: cell-based; settings: 6% w/v solution, 24 hours, 22° C
Method: (§1) A 6% w/v solution of each compound was used and samples tested at 24 hours (22° C). […] Relative RBC fixation was detected by adding known RBC lysing agent. […] Fixing is relative and depends on how long you want cells or tissues to remain fixed.

[2] = tested on: 6C3HED lymphosarcoma ascites cells; assay: Vital staining of ascites cells held in fixative 48 hours; format: cell-based, C3H mice; settings: 3% in PBS, 6° C.
Method: Tumor Immunization. 6C3HED lymphosarcoma was grown in C3H mice as ascites (ascites cause collection of fluid in the peritoneal cavity). The ascites cells were then washed in phosphate buffered saline (PBS) containing 3% IDU, 3% Glydant, or 3% Dimethylol urea. The cells were then placed at 6° C. for 48 hours.

WBC's = assay: WBC fixation (cells do not disintegrate or clump after removal of compound); format: cell-based; settings: 6% w/v solution, 24 hours, 22° C
Method: as §1

Compound: O=C(NCO)NCO [Dimethylol urea, dimethylol urea]
- Formaldehyde release [1]: Formaldehyde is released in very small quantities
- Fixation of RBC's (RBC's): Fixes both RBC's and WBC's
- Viability by vital staining [2]: none of the cells were viable
- Fixation of WBC's (WBC's): Fixes both RBC's and WBC's
